# Measurements reported in the supplement of paper PMC8728848.
# This is one part of the list.
# What was measured:
# Test in all cases: glycan array binding signal (z-score within array); higher = stronger binding
# Conditions in all cases: glycan notation: IUPAC condensed, linker removed
# [1] = target: Gal(b1-4)GalNAc(b1-3)[Fuc(a1-2)]Gal(b1-4)GlcNAc
# Procedure, shortened: (§1)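 Glycan array binding is given as a within-array Z-score, which can be read as non-binding when negative. The arrays, 3228 of them, came from the Consortium for Functional Glycomics database and were retained only where the protein sequence was available. Z-scores were averaged across arrays of the same protein sequence at different concentrations or buffers and across linkers.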
# [2] = target: Gal(b1-4)Glc
# Procedure, shortened: as §1
# [3] = target: Gal(b1-4)Glc6S
# Procedure, shortened: as §1
# [4] = target: Gal(b1-4)GlcNAc
# Procedure, shortened: as §1
# [5] = target: Gal(b1-4)GlcNAc(a1-6)Gal(b1-4)GlcNAc
# Procedure, shortened: as §1
# [6] = target: Gal(b1-4)GlcNAc(b1-2)Man
# Procedure, shortened: as §1
# [7] = target: Gal(b1-4)GlcNAc(b1-2)Man(a1-3)Man(b1-4)GlcNAc(b1-4)GlcNAc
# Procedure, shortened: as §1
# [8] = target: Gal(b1-4)GlcNAc(b1-2)Man(a1-3)[Gal(b1-4)GlcNAc(b1-2)Man(a1-6)]Man(b1-4)GlcNAc(b1-4)GlcNAc
# Procedure, shortened: as §1
# [9] = target: Gal(b1-4)GlcNAc(b1-2)Man(a1-3)[Gal(b1-4)GlcNAc(b1-2)Man(a1-6)]Man(b1-4)GlcNAc(b1-4)[Fuc(a1-6)]GlcNAc
# Procedure, shortened: as §1
# [10] = target: Gal(b1-4)GlcNAc(b1-2)Man(a1-3)[Gal(b1-4)GlcNAc(b1-2)Man(a1-6)][Gal(b1-4)GlcNAc(b1-4)]Man(b1-4)GlcNAc(b1-4)[Fuc(a1-6)]GlcNAc
# Procedure, shortened: as §1
# [11] = target: Gal(b1-4)GlcNAc(b1-2)Man(a1-3)[Gal(b1-4)GlcNAc(b1-2)Man(a1-6)][GlcNAc(b1-4)]Man(b1-4)GlcNAc(b1-4)[Fuc(a1-6)]GlcNAc
# Procedure, shortened: as §1
# [12] = target: Gal(b1-4)GlcNAc(b1-2)Man(a1-3)[GlcNAc(b1-2)Man(a1-6)]Man(b1-4)GlcNAc(b1-4)GlcNAc
# Procedure, shortened: as §1
# [13] = target: Gal(b1-4)GlcNAc(b1-2)Man(a1-3)[GlcNAc(b1-4)][Gal(b1-4)GlcNAc(b1-2)Man(a1-6)]Man(b1-4)GlcNAc(b1-4)GlcNAc
# Procedure, shortened: as §1
# [14] = target: Gal(b1-4)GlcNAc(b1-2)Man(a1-3)[Man(a1-6)]Man(b1-4)GlcNAc(b1-4)GlcNAc
# Procedure, shortened: as §1
# [15] = target: Gal(b1-4)GlcNAc(b1-2)Man(a1-6)Man(b1-4)GlcNAc(b1-4)GlcNAc
# Procedure, shortened: as §1
# [16] = target: Gal(b1-4)GlcNAc(b1-2)Man(a1-6)[GlcNAc(b1-2)Man(a1-3)]Man(b1-4)GlcNAc(b1-4)GlcNAc
# Procedure, shortened: as §1
# [17] = target: Gal(b1-4)GlcNAc(b1-2)Man(a1-6)[Man(a1-3)]Man(b1-4)GlcNAc(b1-4)GlcNAc
# Procedure, shortened: as §1
# [18] = target: Gal(b1-4)GlcNAc(b1-2)[Gal(b1-4)GlcNAc(b1-4)]Man(a1-3)[Gal(b1-4)GlcNAc(b1-2)Man(a1-6)]Man(b1-4)GlcNAc(b1-4)GlcNAc
# Procedure, shortened: as §1
# [19] = target: Gal(b1-4)GlcNAc(b1-2)[Gal(b1-4)GlcNAc(b1-4)]Man(a1-3)[Gal(b1-4)GlcNAc(b1-2)[Gal(b1-4)GlcNAc(b1-6)]Man(a1-6)]Man(b1-4)GlcNAc(b1-4)GlcNAc
# Procedure, shortened: as §1
# [20] = target: Gal(b1-4)GlcNAc(b1-2)[Gal(b1-4)GlcNAc(b1-4)]Man(a1-3)[GlcNAc(b1-4)][Gal(b1-4)GlcNAc(b1-2)Man(a1-6)]Man(b1-4)GlcNAc(b1-4)GlcNAc
# Procedure, shortened: as §1
# [21] = target: Gal(b1-4)GlcNAc(b1-2)[Gal(b1-4)GlcNAc(b1-4)]Man(a1-3)[GlcNAc(b1-4)][Gal(b1-4)GlcNAc(b1-2)[Gal(b1-4)GlcNAc(b1-6)]Man(a1-6)]Man(b1-4)GlcNAc(b1-4)GlcNAc
# Procedure, shortened: as §1
# [22] = target: Gal(b1-4)GlcNAc(b1-2)[Gal(b1-4)GlcNAc(b1-6)]Man(a1-6)[Gal(b1-4)GlcNAc(b1-2)Man(a1-3)]Man(b1-4)GlcNAc(b1-4)GlcNAc
# Procedure, shortened: as §1
binder,measurement,setting,value
"EfCBM33A (Enterococcus faecalis), Q838S1 (protein) MKKSLLTIVLAFSFVLGGAALAPTVSEAHGYVASPGSRAFFGSSAGGNLNTNVGRAQWEPQSIEAPKNTFITGKLASAGVSGFEPLDEQTATRWHKTNITTGPLDITWNLTAQHRTASWDYYITKNGWNPNQPLDIKNFDKIASIDGKQEVPNKVVKQTINIPTDRKGYHVIYAVWGIGDTVNAFYQAIDVNIQ",glycan array binding signal (z-score),[1],1.07
same,glycan array binding signal (z-score),[2],-0.27
same,glycan array binding signal (z-score),[3],-1.15
same,glycan array binding signal (z-score),[4],-0.861
same,glycan array binding signal (z-score),[5],-0.654
same,glycan array binding signal (z-score),[6],0.594
same,glycan array binding signal (z-score),[7],0.005
same,glycan array binding signal (z-score),[8],-0.738
same,glycan array binding signal (z-score),[9],1.68
same,glycan array binding signal (z-score),[10],-0.8
same,glycan array binding signal (z-score),[11],-1.04
same,glycan array binding signal (z-score),[12],-1.01
same,glycan array binding signal (z-score),[13],0.955
same,glycan array binding signal (z-score),[14],0.65
same,glycan array binding signal (z-score),[15],-0.202
same,glycan array binding signal (z-score),[16],-0.726
same,glycan array binding signal (z-score),[17],0.026
same,glycan array binding signal (z-score),[18],-1.17
same,glycan array binding signal (z-score),[19],-1.07
same,glycan array binding signal (z-score),[20],-1.24
same,glycan array binding signal (z-score),[21],-0.469
same,glycan array binding signal (z-score),[22],1.35

# 2 records drawn at random from the list so far, as already listed:
binder,measurement,setting,value
"EfCBM33A (Enterococcus faecalis), Q838S1 (protein) MKKSLLTIVLAFSFVLGGAALAPTVSEAHGYVASPGSRAFFGSSAGGNLNTNVGRAQWEPQSIEAPKNTFITGKLASAGVSGFEPLDEQTATRWHKTNITTGPLDITWNLTAQHRTASWDYYITKNGWNPNQPLDIKNFDKIASIDGKQEVPNKVVKQTINIPTDRKGYHVIYAVWGIGDTVNAFYQAIDVNIQ",glycan array binding signal (z-score),[22],1.35
same,glycan array binding signal (z-score),[6],0.594
